PubChem BioAssay AID743121 | NCATS – 2013
The whole screen tested about 26,000 reagents; this is a part drawn at random. Of all reagents, 167 (0.63%) were called active. 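Calls are per gene from RSA p-values that are not deposited; an individual active-marked siRNA can sensitise only weakly.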 The numbers tell different reagents against one gene apart. Further read-outs or replicates are left out here.

- Purpose: 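Partners whose loss is lethal together with topoisomerase I blockade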 (primary screen)
- System: MDA-MB-231 cells, a human breast cancer line
- Reagents: single siRNA against human genes, 20 nM siRNA (0.8 pmol per well)
- Timing: 120 h (drug added 48 h after transfection, read 72 h later)
- Treatment: camptothecin 20 nM (about EC30) for 72 h; vehicle 0.1% DMSO in parallel plates
- Measured: 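Cell viability by ATP luminescence (CellTiter-Glo) as % of non-targeting siRNA wells, and the log2 ratio of viability without drug over viability with camptothecin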
- Reading the numbers: log2 vehicle/camptothecin viability: higher = stronger sensitisation to camptothecin
- Hit rule: 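Active genes have an RSA gene-level p-value below 0.001, computed from the ratios of their separate siRNAs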

log2 vehicle/camptothecin viability, by target and reagent
IRAK1BP1: #1 -0.032 inactive; #2 -0.334 inactive; #3 -0.279 inactive; #4 -0.416 inactive
TUBB4B: #1 -0.255 inactive; #2 -0.244 inactive; #3 0.237 inactive; #4 -0.237 inactive
IFNA17: #1 -0.279 inactive; #2 -0.51 inactive
IL18R1: #1 -0.34 inactive; #2 -0.0436 inactive; #3 -0.0711 inactive; #4 0.12 inactive
GPR135: #1 -0.133 inactive; #2 -0.344 inactive; #3 -0.164 inactive; #4 -0.334 inactive
GRIN1: #1 0.116 inactive; #2 0.284 inactive; #3 -0.459 inactive
ILK: #1 -0.317 inactive; #2 -0.371 inactive; #3 0.129 inactive; #4 -0.0986 inactive
MMD: #1 -0.576 inactive; #2 -0.363 inactive; #3 -0.566 inactive; #4 -0.0787 inactive
TRIB2: #1 -0.441 inactive; #2 -0.477 inactive; #3 0.318 inactive; #4 0.464 inactive

Reformatted: 10 of the entries above.
target	siRNA no.	log2 vehicle/camptothecin viability	activity call
GRIN1	2	0.284	inactive
GRIN1	3	-0.459	inactive
ILK	1	-0.317	inactive
ILK	2	-0.371	inactive
ILK	3	0.129	inactive
ILK	4	-0.0986	inactive
MMD	1	-0.576	inactive
MMD	2	-0.363	inactive
MMD	3	-0.566	inactive
MMD	4	-0.0787	inactive

More entries follow.
log2 vehicle/camptothecin viability, by target and reagent
NCR2: #1 -0.15 inactive; #2 0.0404 inactive; #3 -0.285 inactive
PAX8: #1 0.116 inactive; #2 -0.477 inactive; #3 -0.0311 inactive; #4 1.33 inactive; #5 -0.369 inactive; #6 0.299 inactive
BAZ2A: #1 -0.123 inactive; #2 0.482 inactive; #3 0.341 inactive; #4 -0.253 inactive
SLC35B2: #1 0.299 inactive; #2 0.252 inactive; #3 -0.493 inactive; #4 -0.642 inactive
SLC26A4: #1 0.111 inactive; #2 -0.133 inactive; #3 -0.201 inactive
TXNDC5: #1 -0.335 inactive; #2 -0.643 inactive; #3 -0.23 inactive; #4 -0.174 inactive
HCN4: #1 -0.108 inactive; #2 -0.173 inactive; #3 -0.226 inactive; #4 -0.229 inactive
DCX: #1 0.157 inactive; #2 -0.109 inactive; #3 -0.234 inactive; #4 -0.602 inactive
CTNNA1: #1 -0.416 inactive; #2 -0.184 inactive; #3 0.00652 inactive; #4 -0.456 inactive
